At least one peptide structure holds a part that was inferred or is arguable (an end, a ring closure or a residue). Ends that are not written are not given here.
Key:
[1] = test system: TGF-β1-induced PI3K/Akt/mTOR, p62, IKK signaling in mouse lung fibroblasts; assay: Western immunoblot of signaling proteins in TGF-β1-stimulated mouse lung fibroblasts (SDC2-pep); assay type: cell-based
Method: FIG. 5. […] (A-C) Ptprj^fl/fl Col1a2^Cre-ER(T)+/0 mice (fibroblast-specific CD148 deficient) and Col1a2^Cre-ER(T)+/0 (WT) mice were exposed to BLM. SDC2 18-aa peptide (SDC2-pep, 0.5 mg/kg) was intranasally delivered into WT and Ptprj^fl/fl Col1a2^Cre-ER(T)+/0 mice 10 days after BLM injury. Treatments were repeated at day 12, 14, 16 and 18. (A) At 24 days after BLM exposure lungs were harvested and stained with Masson's trichrome (n=3 for saline and n=5 for BLM groups). (B) Hydroxyproline content was measured in the left lung of mice exposed to BLM (n=11) or saline (n=5). Gene expression of (C) Fn and Col1a1; and (D) connective tissue growth factor (Ctgf) in harvested lungs were measured using qPCR (n=5 for each condition). (E-F) Mouse lung fibroblasts from Ptprj^fl/fl Col1a2^Cre-ER(T)+/0 mice (Ptprj−/−) and Col1a2^Cre-ER(T)+/0 mice (WT) were isolated and treated with 4-OHT (1 μM) for 24 h. After 4-OHT treatment, cells were exposed to ±TGF-β1 (10 ng/ml) for an additional 24 h, in the absence or presence of SDC2-pep (5 μM). (E) Expression of p-AKT/Akt, p-mTOR/mTOR, p62/GAPDH p-IKKα/β/IKKα, α-SMA/GAPDH, and CD148/GAPDH was determined by Western immunoblotting (n=4), and corresponding densitometry (ImageJ software). Data are mean±s.e.m. *P<0.05, by one-way ANOVA. (F) mRNA levels of Col1a1 and Fn were measured by qPCR (n=5 for each condition). (G) After treatment, cells were mixed with collagen 1. Gel contractility was measured at 0, 12, and 24 h after TGF-β1 stimulation (n=6 for each condition). Data are mean±s.e.m. *P<0.05, by one-way ANOVA. (H) SDC2-pep alleviates lung fibrosis after BLM-induced injury. Total cell concentrations were measured in BAL fluid from Ptprj^fl/fl Col1a2^Cre-ER(T)+/0 mice and Col1a2-Cre (control) mice 21 days after BLM injury (n=5/group).
This study was approved by the institutional review board at Brigham and Women's Hospital (approval number: 2011P002419). Lung fibroblasts were derived from patients who were subjected to lung transplantation with progressing IPF. Primary control lung (control) fibroblasts were derived from nonfibrotic lung samples lacking any evidence of disease which were deemed unsuitable Mouse for transplantation. lung fibroblasts from Ptprj^fl/flCol1a2-Cre-ER(T)^+/0, Col1a2-Cre-ER(T)^+/0 or GFP-LC3 transgenic mice were obtained as previously described (Tsoyi K et al., Crit Care Med 2016; 44: e1236-e1245). Briefly, isolated lungs were minced and digested in collagenase buffer. Cell pellets will be resuspended and cultured for 7-10 days. Cells were lineage and Sca-1 depleted using commercially available kits from StemCell Technologies (Vancouver, BC) to remove hematopoietic and progenitor cell populations. Fibroblasts were cultured in complete media (DMEM; Corning) containing 10% FBS (Corning), 100 IU of penicillin and 100 μg/ml streptomycin (Corning), 292 μg/ml L-glutamine (Corning), and 100 μg/ml Primocin (InVivoGen) in humidified incubators at 37° C. and 10% CO2. To induce Cre recombinase expression in Ptprj^fl/flCol1a2-Cre-ER(T)^+/0 or Col1a2-Cre-ER(T)^+/0 lung fibroblasts, cells were treated with 4-hydroxytamoxifen (4-OHT, 1 μM).
Polyacrylamide gel electrophoresis and immunoblotting were performed according to standard methods. The electrophoresed proteins were transferred to polyvinylidene difluoride (PVDF) membranes by semidry electrophoretic transfer at 15 V for 60-75 min. The membranes were blocked overnight at 4° C. in 5% bovine serum albumin (BSA). The cells were incubated with primary antibodies diluted 1:500 in Tris-buffered saline/Tween 20 (TBS-T) containing 5% BSA for 2 h and then incubated with the secondary antibody at room temperature for 1 h. Suitable horseradish peroxidase (HRP)-conjugated secondary antibodies were used (1:5000 dilution in TBST containing 1% BSA). The signals were detected by ECL (Thermo Fisher Scientific, Waltham, MA). […]

[2] = test system: human IPF fibroblasts; assay: Gel contraction assay, human IPF fibroblasts; assay type: cell-based; conditions: SDC2-pep 5 μM
[3] = test system: mouse lung fibroblasts; assay: Gel contraction assay, mouse lung fibroblasts; assay type: cell-based; conditions: SDC2-pep 5 μM
[4] = test system: PI3K/Akt/mTOR pathway in human IPF fibroblasts; assay: Western blot of PI3K/Akt/mTOR and autophagy markers in human IPF fibroblasts; assay type: cell-based; conditions: SDC2-pep 5 μM
[5] = test system: precision cut lung slices from IPF patients; assay: Pro-fibrotic gene expression in precision cut lung slices from IPF patients (QM107); assay type: cell-based, human; conditions: vs. control, P<0.001
[6] = test system: human IPF fibroblasts; assay: qPCR of ECM genes in human IPF fibroblasts; assay type: cell-based; conditions: SDC2-pep 5 μM
[7] = wild type fibroblasts, TGF-β1 10 ng/ml, SDC2-pep 5 μM

With PAEEDTNVYTEKHSDSLF [QM107] the “inhibitory effect on TGF-β1-dependent expression of these signaling proteins” value ([1]; Ptprj−/− fibroblasts, TGF-β1 10 ng/ml, SDC2-pep 5 μM) was “reduced”, the autophagy ([1]; mouse fibroblasts, by downregulation of PI3K/Akt/mTOR signaling) was “upregulates autophagy” and the p62 expression [1, 7] was “markedly abrogated”. For the same sequence, the p-Akt expression [1, 7] was “markedly abrogated”, the p-IKKα/β expression [1, 7] was “markedly abrogated” and the p-mTOR expression [1, 7] was “markedly abrogated”. The α-SMA expression [1, 7] was “markedly abrogated”, the “inhibition of cell contractility” value ([2]; absence of CD148 (shCD148)) was “reduced in the absence of CD148” and the cell contractility ([2]; human IPF fibroblasts) was “inhibited”. For the same sequence, the TGF-β1-induced cell contractility ([3]; Ptprj−/− fibroblasts) was “partially inhibited”, the TGF-β1-induced cell contractility ([3]; wild type fibroblasts) was “inhibited” and the autophagy ([4]; human IPF fibroblasts, CD148-dependent) was “restored autophagy”. The p62 expression ([4]; human IPF fibroblasts) was “reduced p62 expression”, the “relative LC3B-II expression” value ([4]; human IPF fibroblasts) was “increased relative LC3B-II expression” and the “activation of the PI3K/Akt/mTOR pathway” value ([4]; human IPF fibroblasts, 24 h) was “significantly inhibited”. For the same sequence, the p-Akt expression ([4]; scr-transfected, 24 h) was “significantly inhibited”, the p-mTOR expression ([4]; scr-transfected, 24 h) was “significantly inhibited” and the p-Akt expression ([4]; shCD148-transfected, 24 h) was “not in shCD148-transfected cells”. For the same sequence, the p-mTOR expression ([4]; shCD148-transfected, 24 h) was “not in shCD148-transfected cells”, the “Collagen I (Col1a1) expression” value [5] was “greatly reduced” and the “Fibronectin (FN) expression” value [5] was “greatly reduced”. For the same sequence, the “α-smooth muscle actin (Acta2) expression” value [5] was “greatly reduced”, the “inhibition of ECM gene expression (Fn, Col1a1)” value ([6]; absence of CD148 (shCD148)) was “reduced in the absence of CD148” and the Col1a1 gene expression ([6]; human IPF fibroblasts) was “inhibited”. The Fn gene expression ([6]; human IPF fibroblasts) was “inhibited”.
